Results reported in article PMC10950329.
These are yes or no findings as the source states them, for the method shown. In cells and extracts the contact can be indirect. Here binding means that the protein was enriched with, or labelled near, the bait; the list need not be complete.

The chains behind the UniProt entries cited, without tags or fusion partners.
UniProt O08808: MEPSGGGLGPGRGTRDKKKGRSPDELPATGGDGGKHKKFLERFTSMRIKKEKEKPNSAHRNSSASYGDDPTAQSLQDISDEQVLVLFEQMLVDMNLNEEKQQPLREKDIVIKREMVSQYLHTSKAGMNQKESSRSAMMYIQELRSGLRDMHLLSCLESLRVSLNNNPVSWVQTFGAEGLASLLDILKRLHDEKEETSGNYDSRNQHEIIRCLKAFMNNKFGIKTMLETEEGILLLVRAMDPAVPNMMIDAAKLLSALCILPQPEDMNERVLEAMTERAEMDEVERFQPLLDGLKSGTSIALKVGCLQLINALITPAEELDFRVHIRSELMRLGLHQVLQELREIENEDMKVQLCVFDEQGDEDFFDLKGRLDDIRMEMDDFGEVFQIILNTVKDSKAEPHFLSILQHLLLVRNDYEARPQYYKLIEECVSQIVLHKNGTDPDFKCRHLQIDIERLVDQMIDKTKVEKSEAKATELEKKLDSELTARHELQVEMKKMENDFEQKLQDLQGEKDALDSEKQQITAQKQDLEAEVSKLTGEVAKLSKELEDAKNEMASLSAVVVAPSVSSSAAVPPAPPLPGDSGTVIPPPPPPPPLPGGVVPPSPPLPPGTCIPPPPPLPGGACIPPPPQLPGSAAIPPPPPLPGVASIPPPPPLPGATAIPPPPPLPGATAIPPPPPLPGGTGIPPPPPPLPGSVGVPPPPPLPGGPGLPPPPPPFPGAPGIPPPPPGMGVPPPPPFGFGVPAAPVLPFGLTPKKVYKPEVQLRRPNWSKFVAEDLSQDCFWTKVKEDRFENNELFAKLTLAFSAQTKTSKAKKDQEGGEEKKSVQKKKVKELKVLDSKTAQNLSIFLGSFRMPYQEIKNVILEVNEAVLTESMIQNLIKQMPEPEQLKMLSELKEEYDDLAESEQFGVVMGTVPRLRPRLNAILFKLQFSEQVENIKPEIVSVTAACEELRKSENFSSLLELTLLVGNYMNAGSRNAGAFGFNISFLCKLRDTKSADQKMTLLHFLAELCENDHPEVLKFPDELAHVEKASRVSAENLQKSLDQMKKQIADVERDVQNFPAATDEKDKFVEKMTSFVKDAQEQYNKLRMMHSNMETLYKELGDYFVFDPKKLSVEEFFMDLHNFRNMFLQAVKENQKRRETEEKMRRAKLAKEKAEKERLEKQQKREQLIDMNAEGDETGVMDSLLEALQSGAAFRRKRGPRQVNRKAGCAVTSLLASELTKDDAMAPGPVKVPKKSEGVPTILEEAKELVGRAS
UniProt Q61644: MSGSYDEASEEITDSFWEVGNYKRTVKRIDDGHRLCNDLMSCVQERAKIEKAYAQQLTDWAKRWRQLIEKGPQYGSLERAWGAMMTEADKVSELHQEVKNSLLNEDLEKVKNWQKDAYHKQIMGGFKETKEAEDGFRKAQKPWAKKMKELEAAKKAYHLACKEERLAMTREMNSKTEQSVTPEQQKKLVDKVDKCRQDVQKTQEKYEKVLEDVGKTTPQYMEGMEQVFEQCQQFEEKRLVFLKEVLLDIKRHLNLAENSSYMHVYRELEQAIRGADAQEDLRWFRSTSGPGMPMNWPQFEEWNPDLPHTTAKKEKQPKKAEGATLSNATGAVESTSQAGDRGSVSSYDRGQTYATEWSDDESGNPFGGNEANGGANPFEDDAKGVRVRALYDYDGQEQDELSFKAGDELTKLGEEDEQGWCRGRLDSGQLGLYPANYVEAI
UniProt Q9WVE8: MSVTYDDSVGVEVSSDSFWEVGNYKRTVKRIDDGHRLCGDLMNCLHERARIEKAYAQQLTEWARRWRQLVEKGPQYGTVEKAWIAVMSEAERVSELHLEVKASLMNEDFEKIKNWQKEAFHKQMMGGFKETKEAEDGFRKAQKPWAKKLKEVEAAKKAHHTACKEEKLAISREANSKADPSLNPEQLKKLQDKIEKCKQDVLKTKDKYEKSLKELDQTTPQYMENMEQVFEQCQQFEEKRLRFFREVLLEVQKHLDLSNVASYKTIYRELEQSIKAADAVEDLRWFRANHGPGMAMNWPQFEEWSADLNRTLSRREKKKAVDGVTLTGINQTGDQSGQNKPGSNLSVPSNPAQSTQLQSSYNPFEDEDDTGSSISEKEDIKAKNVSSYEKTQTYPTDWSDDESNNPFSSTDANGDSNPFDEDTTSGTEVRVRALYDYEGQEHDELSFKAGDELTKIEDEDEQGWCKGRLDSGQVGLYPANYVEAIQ
UniProt Q8CHC4: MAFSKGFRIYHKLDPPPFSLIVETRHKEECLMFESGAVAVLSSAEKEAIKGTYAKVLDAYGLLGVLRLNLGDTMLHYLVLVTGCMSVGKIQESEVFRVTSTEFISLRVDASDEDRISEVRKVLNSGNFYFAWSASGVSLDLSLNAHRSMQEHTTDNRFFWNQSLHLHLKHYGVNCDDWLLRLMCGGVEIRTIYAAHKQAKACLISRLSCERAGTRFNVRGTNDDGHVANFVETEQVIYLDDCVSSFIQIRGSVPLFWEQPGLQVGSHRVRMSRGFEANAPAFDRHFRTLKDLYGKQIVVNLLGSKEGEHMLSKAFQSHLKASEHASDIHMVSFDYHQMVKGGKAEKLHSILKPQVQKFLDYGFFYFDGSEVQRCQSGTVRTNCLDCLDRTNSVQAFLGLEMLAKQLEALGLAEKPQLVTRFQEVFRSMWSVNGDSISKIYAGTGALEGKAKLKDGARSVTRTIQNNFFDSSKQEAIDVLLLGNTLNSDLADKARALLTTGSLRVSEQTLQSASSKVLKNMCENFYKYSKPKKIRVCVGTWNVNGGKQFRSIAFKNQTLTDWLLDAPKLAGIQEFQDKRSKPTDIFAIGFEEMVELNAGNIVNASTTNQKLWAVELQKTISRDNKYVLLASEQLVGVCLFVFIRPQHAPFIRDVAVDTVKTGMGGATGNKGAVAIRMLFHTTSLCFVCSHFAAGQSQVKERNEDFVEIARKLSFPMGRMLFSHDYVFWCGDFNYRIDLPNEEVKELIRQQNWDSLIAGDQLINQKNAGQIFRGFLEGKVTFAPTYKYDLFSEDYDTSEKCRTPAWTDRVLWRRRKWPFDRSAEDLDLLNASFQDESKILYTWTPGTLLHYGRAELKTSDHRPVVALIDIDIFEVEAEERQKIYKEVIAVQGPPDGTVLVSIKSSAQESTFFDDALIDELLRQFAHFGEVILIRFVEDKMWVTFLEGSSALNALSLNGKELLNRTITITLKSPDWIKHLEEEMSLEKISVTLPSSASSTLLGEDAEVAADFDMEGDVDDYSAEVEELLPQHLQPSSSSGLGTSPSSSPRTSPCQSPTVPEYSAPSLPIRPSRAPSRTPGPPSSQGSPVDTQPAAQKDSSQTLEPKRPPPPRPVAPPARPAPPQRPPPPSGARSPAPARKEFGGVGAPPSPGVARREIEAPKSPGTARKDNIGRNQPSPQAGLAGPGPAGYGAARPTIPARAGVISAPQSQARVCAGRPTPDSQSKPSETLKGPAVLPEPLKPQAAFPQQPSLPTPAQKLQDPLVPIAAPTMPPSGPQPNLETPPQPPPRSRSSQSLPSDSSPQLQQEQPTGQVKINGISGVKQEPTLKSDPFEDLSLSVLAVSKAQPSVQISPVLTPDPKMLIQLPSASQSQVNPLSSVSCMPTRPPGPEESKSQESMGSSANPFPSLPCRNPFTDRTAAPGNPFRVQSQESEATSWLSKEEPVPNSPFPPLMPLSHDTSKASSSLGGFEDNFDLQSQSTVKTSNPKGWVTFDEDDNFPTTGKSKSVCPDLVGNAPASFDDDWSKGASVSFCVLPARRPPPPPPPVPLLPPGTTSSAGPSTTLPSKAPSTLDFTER

B1: Amphiphysin (protein, UniProt Q7TQF7 1-686)
chain: MADIKTGIFAKNVQKRLNRAQEKVLQKLGKADETKDEQFEEYVQNFKRQEAEGTRLQRELRGYLAAIKGMQEASMKLTESLHEVYEPDWYGREDVKMVGEKCDVLWEDFHQKLVDGSLLTLDTYLGQFPDIKNRIAKRSRKLVDYDSARHHLEALQSSKRKDESRISKAEEEFQKAQKVFEEFNVDLQEELPSLWSSRVGFYVNTFKNVSSLEAKFHKEIAVLCHKLYEVMTKLGDQHADKAFSIQGAPSDSGPLRIAKTPSPPEEPSPLPSPTASPNHTLAPASPAPVRPRSPSQTRKGPPVPPLPKVTPTKELKQENIINFFEDNFVPEINVTTPSQNEVLEVKKEETLLDLDFDPFKPDVAPAGSAAATHSPMSQTLPWDLWTTSTDLVQPASGGSFNDFTQAQDTSLFTMQTDQNMAETEQALPTEPQAEEPPATAAAPTAGLDLGLEMEEPKEEAVIPPATDTGETVETAVPTEGAPVEEAEAEKAALPAGEGGSPEGAKIDGESTELAISESPQPVEPEAGAPQVIPSVVIEPASNHEGEGEHQETATGTEPREAAEDVAAQGSAGEKQEVATEPTPLDSQATLPASAGAVDASLSAGDATQELPPGFLYKVETLHDFEAANSDELNLQRGDVVLVVPSDSEADQDAGWLVGVKESDWLQYRDLATYKGLFPENFTRRLE
B2: Dynamin1 (protein, UniProt P39053 1-867)
chain: MGNRGMEDLIPLVNRLQDAFSAIGQNADLDLPQIAVVGGQSAGKSSVLENFVGRDFLPRGSGIVTRRPLVLQLVNSTTEYAEFLHCKGKKFTDFEEVRLEIEAETDRVTGTNKGISPVPINLRVYSPHVLNLTLVDLPGMTKVPVGDQPPDIEFQIRDMLMQFVTKENCLILAVSPANSDLANSDALKIAKEVDPQGQRTIGVITKLDLMDEGTDARDVLENKLLPLRRGYIGVVNRSQKDIDGKKDITAALAAERKFFLSHPSYRHLADRMGTPYLQKVLNQQLTNHIRDTLPGLRNKLQSQLLSIEKEVDEYKNFRPDDPARKTKALLQMVQQFAVDFEKRIEGSGDQIDTYELSGGARINRIFHERFPFELVKMEFDEKELRREISYAIKNIHGIRTGLFTPDMAFETIVKKQVKKIREPCLKCVDMVISELISTVRQCTKKLQQYPRLREEMERIVTTHIREREGRTKEQVMLLIDIELAYMNTNHEDFIGFANAQQRSNQMNKKKTSGNQDEILVIRKGWLTINNIGIMKGGSKEYWFVLTAENLSWYKDDEEKEKKYMLSVDNLKLRDVEKGFMSSKHIFALFNTEQRNVYKDYRQLELACETQEEVDSWKASFLRAGVYPERVGDKEKASETEENGSDSFMHSMDPQLERQVETIRNLVDSYMAIVNKTVRDLMPKTIMHLMINNTKEFIFSELLANLYSCGDQNTLMEESAEQAQRRDEMLRMYHALKEALSIIGDINTTTVSTPMPPPVDDSWLQVQSVPAGRRSPTSSPTPQRRAPAVPPARPGSRGPAPGPPPAGSALGGAPPVPSRPGASPDPFGPPPQVPSRPNRAPPGVPSLGAWRLNSPQGKHENRAGKARL

target: mDia1 (mouse (endogenous in brain synaptosomes)) (UniProt O08808); assay: affinity purification with mass spectrometry; anti-mDia1 versus control IgG immunoprecipitates from detergent-extracted (1% CHAPS) mouse synaptosomes (P2' fraction), Protein A/G magnetic beads, 4 °C; label-free LC-MS, N=3

binding, binds:
PACSIN1 (from UniProt Q61644 1-441)
PACSIN2 (from UniProt Q9WVE8 1-486)
Synaptojanin1 (from UniProt Q8CHC4 1-1574)
B1
B2
